# Assay results: the supplement of paper PMC8728848
# The other results are listed elsewhere or left out.
# How the values were obtained:
# Test in all cases: glycan array binding signal (z-score within array); higher = stronger binding
# Conditions in all cases: glycan notation: IUPAC condensed, linker removed
# [1] = target: Fuc(a1-2)[GalNAc(a1-3)]Gal(b1-4)[Fuc(a1-3)]GlcNAc
# Procedure, shortened: (§1)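 Negative Z-scores can be read as non-binding. The Z-score is calculated within each array and then averaged across arrays of one protein sequence at different concentrations or buffers and across linkers. Arrays, 3228 in all, were curated from the Consortium for Functional Glycomics database and kept only where the protein sequence was available.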
# [2] = target: Fuc(a1-2)[GalNAc(a1-4)]Gal(b1-4)GlcNAc
# Procedure, shortened: as §1
# Fuc(a1-3)GlcNAc = target: Fuc(a1-3)GlcNAc
# Procedure, shortened: as §1
# [3] = target: Fuc(a1-3)[Gal(b1-4)]Glc6S
# Procedure, shortened: as §1
# [4] = target: Fuc(a1-3)[Gal(b1-4)]GlcNAc
# Procedure, shortened: as §1
# [5] = target: Fuc(a1-3)[Gal(b1-4)]GlcNAc(b1-3)Gal(b1-3)[Fuc(a1-4)]GlcNAc
# Procedure, shortened: as §1
# [6] = target: Fuc(a1-3)[Gal(b1-4)]GlcNAc(b1-4)Gal(b1-4)[Fuc(a1-3)]GlcNAc
# Procedure, shortened: as §1
# [7] = target: Fuc(a1-3)[Gal(b1-4)]GlcNAc(b1-4)Gal(b1-4)[Fuc(a1-3)]GlcNAc(b1-4)Gal(b1-4)[Fuc(a1-3)]GlcNAc
# Procedure, shortened: as §1
# [8] = target: Fuc(a1-3)[Gal(b1-4)]GlcNAc6S
# Procedure, shortened: as §1
# [9] = target: Fuc(a1-3)[Gal3S(b1-4)]Glc
# Procedure, shortened: as §1
# [10] = target: Fuc(a1-3)[Gal3S(b1-4)]Glc6S
# Procedure, shortened: as §1
# [11] = target: Fuc(a1-3)[Gal3S(b1-4)]GlcNAc
# Procedure, shortened: as §1
# [12] = target: Fuc(a1-3)[Gal3S(b1-4)]GlcNAc6S
# Procedure, shortened: as §1
# [13] = target: Fuc(a1-3)[GalNAc(b1-4)]Gal(b1-4)GlcNAc
# Procedure, shortened: as §1
# Fuc(a1-4)GlcNAc = target: Fuc(a1-4)GlcNAc
# Procedure, shortened: as §1
# Fuc(b1-3)GlcNAc = target: Fuc(b1-3)GlcNAc
# Procedure, shortened: as §1
# Gal(a1-2)Gal = target: Gal(a1-2)Gal
# Procedure, shortened: as §1
# Gal(a1-3)Gal = target: Gal(a1-3)Gal
# Procedure, shortened: as §1
# Gal(a1-3)Gal(b1-3)Glc = target: Gal(a1-3)Gal(b1-3)Glc
# Procedure, shortened: as §1
# Gal(a1-3)Gal(b1-3)GlcNAc = target: Gal(a1-3)Gal(b1-3)GlcNAc
# Procedure, shortened: as §1
# Gal(a1-3)Gal(b1-4)GlcNAc = target: Gal(a1-3)Gal(b1-4)GlcNAc
# Procedure, shortened: as §1
# [14] = target: Gal(a1-3)Gal(b1-4)[Fuc(a1-3)]GalNAc
# Procedure, shortened: as §1
# Gal(a1-3)GlcNAc = target: Gal(a1-3)GlcNAc
# Procedure, shortened: as §1
# [15] = target: Gal(a1-3)[Gal(a1-4)]Gal(b1-4)GlcNAc
# Procedure, shortened: as §1
# Gal(a1-4)Gal(b1-4)Gal = target: Gal(a1-4)Gal(b1-4)Gal
# Procedure, shortened: as §1
# Gal(a1-4)Gal(b1-4)GalNAc = target: Gal(a1-4)Gal(b1-4)GalNAc
# Procedure, shortened: as §1
# Gal(a1-4)GlcNAc = target: Gal(a1-4)GlcNAc
# Procedure, shortened: as §1
# Gal(a1-6)Glc = target: Gal(a1-6)Glc
# Procedure, shortened: as §1
# Gal(b1-2)Gal = target: Gal(b1-2)Gal
# Procedure, shortened: as §1
# Gal(b1-3)Gal = target: Gal(b1-3)Gal
# Procedure, shortened: as §1
# Gal(b1-3)GalNAc = target: Gal(b1-3)GalNAc
# Procedure, shortened: as §1
# [16] = target: Gal(b1-3)GalNAc(b1-3)Gal(a1-4)Gal(b1-4)Glc
# Procedure, shortened: as §1
# [17] = target: Gal(b1-3)GalNAc(b1-3)Gal(b1-4)Glc
# Procedure, shortened: as §1
# [18] = target: Gal(b1-3)GalNAc(b1-3)Gal(b1-4)GlcNAc
# Procedure, shortened: as §1
# [19] = target: Gal(b1-3)GalNAc(b1-4)Gal(b1-4)Glc
# Procedure, shortened: as §1
# [20] = target: Gal(b1-3)GalNAc(b1-4)[Neu5Ac(a2-3)]Gal(b1-4)Glc
# Procedure, shortened: as §1
# [21] = target: Gal(b1-3)GlcNAc(b1-3)Gal(b1-3)GlcNAc
# Procedure, shortened: as §1
binder,measurement,setting,value
"FBG2 (Homo sapiens), Q9NRD1 (protein) MDAPHSKAALDSINELPENILLELFTHVPARQLLLNCRLVCSLWRDLIDLMTLWKRKCLREGFITKDWDQPVADWKIFYFLRSLHRNLLRNPCAEEDMFAWQIDFNGGDRWKVESLPGAHGTDFPDPKVKKYFVTSYEMCLKSQLVDLVAEGYWEELLDTFRPDIVVKDWFAARADCGCTYQLKVQLASADYFVLASFEPPPVTIQQWNNATWTEVSYTFSDYPRGVRYILFQHGGRDTQYWAGWYGPRVTNSSIVVSPKMTRNQASSEAQPGQKHGQEEAAQSPYRAVVQIFPPPVTIQQWNNATWTEVSYTFSDYPRGVRYILFQHGGRDTQYWAGWYGPRVTNSSIVVSPKMTRNQASSEAQPGQKHGQEEAAQSPYRAVVQI",glycan array binding signal (z-score),[1],-0.226
same,glycan array binding signal (z-score),[2],-0.506
same,glycan array binding signal (z-score),Fuc(a1-3)GlcNAc,-0.674
same,glycan array binding signal (z-score),[3],-0.381
same,glycan array binding signal (z-score),[4],-0.537
same,glycan array binding signal (z-score),[5],-0.144
same,glycan array binding signal (z-score),[6],-0.045
same,glycan array binding signal (z-score),[7],0.56
same,glycan array binding signal (z-score),[8],0.09
same,glycan array binding signal (z-score),[9],-0.545
same,glycan array binding signal (z-score),[10],0.365
same,glycan array binding signal (z-score),[11],-0.236
same,glycan array binding signal (z-score),[12],0.755
same,glycan array binding signal (z-score),[13],-0.382
same,glycan array binding signal (z-score),Fuc(a1-4)GlcNAc,-0.195
same,glycan array binding signal (z-score),Fuc(b1-3)GlcNAc,-0.191
same,glycan array binding signal (z-score),Gal(a1-2)Gal,-0.526
same,glycan array binding signal (z-score),Gal(a1-3)Gal,-0.626
same,glycan array binding signal (z-score),Gal(a1-3)Gal(b1-3)Glc,-0.293
same,glycan array binding signal (z-score),Gal(a1-3)Gal(b1-3)GlcNAc,-0.487
same,glycan array binding signal (z-score),Gal(a1-3)Gal(b1-4)GlcNAc,0.097
same,glycan array binding signal (z-score),[14],0.215
same,glycan array binding signal (z-score),Gal(a1-3)GlcNAc,-0.826
same,glycan array binding signal (z-score),[15],0.314
same,glycan array binding signal (z-score),Gal(a1-4)Gal(b1-4)Gal,0.4
same,glycan array binding signal (z-score),Gal(a1-4)Gal(b1-4)GalNAc,-0.576
same,glycan array binding signal (z-score),Gal(a1-4)GlcNAc,-0.876
same,glycan array binding signal (z-score),Gal(a1-6)Glc,1.57
same,glycan array binding signal (z-score),Gal(b1-2)Gal,-0.363
same,glycan array binding signal (z-score),Gal(b1-3)Gal,-0.597
same,glycan array binding signal (z-score),Gal(b1-3)GalNAc,-0.527
same,glycan array binding signal (z-score),[16],0.174
same,glycan array binding signal (z-score),[17],-0.208
same,glycan array binding signal (z-score),[18],-0.137
same,glycan array binding signal (z-score),[19],-0.441
same,glycan array binding signal (z-score),[20],-0.243
same,glycan array binding signal (z-score),[21],-0.379

# Copied from above (seven entries):
binder,measurement,setting,value
"FBG2 (Homo sapiens), Q9NRD1 (protein) MDAPHSKAALDSINELPENILLELFTHVPARQLLLNCRLVCSLWRDLIDLMTLWKRKCLREGFITKDWDQPVADWKIFYFLRSLHRNLLRNPCAEEDMFAWQIDFNGGDRWKVESLPGAHGTDFPDPKVKKYFVTSYEMCLKSQLVDLVAEGYWEELLDTFRPDIVVKDWFAARADCGCTYQLKVQLASADYFVLASFEPPPVTIQQWNNATWTEVSYTFSDYPRGVRYILFQHGGRDTQYWAGWYGPRVTNSSIVVSPKMTRNQASSEAQPGQKHGQEEAAQSPYRAVVQIFPPPVTIQQWNNATWTEVSYTFSDYPRGVRYILFQHGGRDTQYWAGWYGPRVTNSSIVVSPKMTRNQASSEAQPGQKHGQEEAAQSPYRAVVQI",glycan array binding signal (z-score),Fuc(a1-3)GlcNAc,-0.674
same,glycan array binding signal (z-score),[3],-0.381
same,glycan array binding signal (z-score),[4],-0.537
same,glycan array binding signal (z-score),[5],-0.144
same,glycan array binding signal (z-score),[6],-0.045
same,glycan array binding signal (z-score),[7],0.56
same,glycan array binding signal (z-score),[8],0.09
